Experimental data from PubChem BioAssay AID1745846 (National Center for Advancing Translational Sciences (NCATS), 2022).
The campaign covered roughly 1,400 compounds. About 30 (2%) were called active. Inconclusive results (about 15%) are left out. The call rests on the fitted dose curve; in most records, active means well fitted inhibition curve with a large enough effect; inconclusive means small, poorly fitted or top-dose-only effect; inactive means flat fitted curve, though single readings scatter. This is one part of the list.

Experiment: Firefly Luciferase Counterscreen for Inhibitors of ATXN expression
Details: luminescence; series mostly up to 57.5 µM; activity change, negative = inhibition: at the top concentration
In short: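 Recombinant firefly luciferase at 10 nM final in 50 mM Tris pH 7.5, 10 mM MgCl2, 0.05% BSA, 0.01% Tween20 with substrate; compounds up to 57 uM final, 10 min room temperature, end-point luminescence. Buffer-only wells define 100% inhibition.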
On the % scale 0 is the no-effect control and ±100 the full control effect; potency means the concentration at half of the fitted maximal effect.

Row | Compound | activity change, negative = inhibition | Potency
1 | COc1ccc(C(=O)c2sc(Nc3ccccc3)nc2N)cc1OC | inactive: -16.4% | 
2 | Cn1c(N)c(C(=O)Nc2ccc(-c3ccccc3)cc2)sc1=S | inactive: -17.3% | 
3 | O=C(NC1CCN(Cc2ccccc2)CC1)c1cccc(S(=O)(=O)Nc2ccc(SC(F)F)cc2)c1 | inactive: -18.8% | 
4 | CC(C)[C@@H]1CC[C@@H](C)C[C@H]1OC(=O)C[n+]1cc(-c2ccc(Cl)cc2)n2c1CCCCC2 | inactive: 3.57% | 
5 | Cc1cc(/C=N/n2c(COc3ccccc3)nc3ccccc3c2=O)c(O)c([N+](=O)[O-])c1 |  | active: 15.8 µM
6 | COc1ccc2c(c1)[nH]c1c(=O)n(/N=C/C3C(C)C=C(C)CC3C)c(=O)[nH]c12 (stereo not given) | inactive: 2.14% | 
7 | NNC(=O)c1nc(-c2ccccc2)cc(-c2ccccc2)n1 | inactive: -10.1% | 
8 | COc1ccc(CCNc2ncnc3c2[nH]c2cc(OC)c(OC)cc23)cc1OC | inactive: -19.6% | 
9 | Cn1cc(/C=C/c2cc[n+](C)cc2)c2cc(F)ccc21 | inactive: -0.972% | 
10 | Cc1ccc(C(=O)N(C)CC(=O)Nc2ccc(Cl)c(C(F)(F)F)c2)cc1S(=O)(=O)N1CCCCC1 | inactive: -1.27% | 
11 | COc1ccc(CCNC(=O)c2cc(-c3cc(C)cc(C)c3O)n[nH]2)cc1OC | inactive: -15.5% | 
12 | Cc1cccc(N2CCN(S(=O)(=O)c3ccc4c(c3)C(C)(C)C(=O)N4C)CC2)c1C | inactive: 1.85% | 
13 | CCOc1ccc(Nc2c3ccccc3nc3ccccc23)cc1 | inactive: -5.74% | 
14 | NC(COCc1ccccc1)c1csc(Nc2ccc(C(F)(F)F)cn2)n1 (stereo not given) | inactive: -1.71% | 
15 | Cc1ccc(/C=C2/SC(=S)N(CCCC(=O)Nc3cc([N+](=O)[O-])ccc3O)C2=O)cc1 | inactive: -19.1% | 
16 | CCOC(=O)N(C)c1c(CC)nc2c(OCc3ccccc3C)cccn12 | inactive: -0.725% | 
17 | Cc1c(C(=O)NCc2ccc(F)cc2)sc(=O)n1Cc1ccc(Cl)c(Cl)c1 | inactive: -1.09% | 
18 | CCOc1cc([C@@H]2C[C@H]3CN(c4ccccc4)C(=O)[C@]34CCCN24)ccc1OC | inactive: -1.04% | 
19 | COc1cc([N+](=O)[O-])cc(/C=N/NC(=O)c2ccc(NC(=O)c3ccc(C)cc3)cc2)c1O | inactive: -2.91% | 
20 | CCCCN(C=O)c1c(CC)nc2ccc(C(=O)Nc3cc(-c4ccccc4)ccc3OC)cn12 | inactive: -1.65% | 
21 | CN(Cc1cnc2nc(N)nc(N)c2n1)c1ccc(C(=O)NC(CCC(=O)O)C(=O)O)c2ccccc12 (stereo not given) | inactive: -9.04% | 
22 | Cc1ccc(Nc2c(-c3ccccn3)nc3cc(C)ccn23)cc1 | inactive: -11.5% | 
23 | Cc1[nH]c2ccccc2c1C1=NNC(=Nc2ccc(F)cc2)SC1 | inactive: -1.37% | 
24 | CCCc1cc(=O)[nH]c(-n2[nH]c3c(c2=O)CCCC3)n1 | inactive: -3.31% | 
25 | COc1ccnc(Oc2ccc(F)cc2)c1C(=O)N/C=N/OCc1ccc(Cl)cc1Cl | inactive: -3.68% | 

Row | Compound | activity change, negative = inhibition | Potency
26 | Oc1c(C(Nc2ccccn2)c2cccnc2)cc(Cl)c2cccnc12 (stereo not given) | inactive: -17.9% | 
27 | O=C(N/N=C/c1ccc(O)cc1O)c1ccc(CN2C(=O)c3cccc4cccc2c34)cc1 | inactive: -3.52% | 
28 | CCCCNC(=O)C1(C)CCCCN1Cc1ccccc1-c1ccccc1 (stereo not given) | inactive: -2.26% | 
29 | NC(Cc1ccccc1)c1csc(Nc2nncc3ccccc23)n1 (stereo not given) | inactive: -3.51% | 
30 | COc1ccc(CC(=O)Nc2nc(-c3ccc(F)c(F)c3)cs2)cc1OC | inactive: -5.08% | 
31 | COc1ccc(C(NC(C)=O)c2cc(Cl)c3cccnc3c2O)cc1OC (stereo not given) | inactive: -18.1% | 
32 | CC1(C)Cc2c(c(N3CCOCC3)nc3sc4c(NN)ncnc4c23)CS1 | inactive: 4.74% | 
33 | FC(F)(F)c1cc(-c2ccccn2)nc2cc(-c3ccccc3)nn12 | inactive: 1.02% | 
34 | CCOC(=O)c1cnc(-n2nc(C)cc2C)nc1NNc1cc(C)nc(-c2ccccc2)n1 | inactive: 0.0162% | 
35 | CC(Oc1ccc(Cl)cc1)C(=O)NNC(=S)NC(=O)c1ccco1 (stereo not given) | inactive: -17.1% | 
36 | Cc1cccc(OCCSc2nc3ncnc(N)c3[nH]2)c1 | inactive: 3.02% | 
37 | CC(Sc1nnc2c(n1)[nH]c1ccccc12)C(=O)N(C)C1CCCCC1 (stereo not given) | inactive: -10.2% | 
38 | Nc1cccc2nc3ccccc3cc12 | inactive: -4.32% | 
39 | Clc1ccc(-c2cc(C3CCNCC3)[nH]n2)c(Cl)c1 | inactive: -10.2% | 
40 | Cc1ccc(NC(=O)c2ccc(-c3nn(C)c(=O)c4ccccc34)cc2)cc1 | inactive: -1.05% | 
41 | Cc1ccc(C)c(S(=O)(=O)N2CCN(Cc3ccc(O)c4ncccc34)CC2)c1 | inactive: 0.471% | 
42 | Cc1nnc(-c2ccccc2)c(=O)n1/N=C/c1c(O)ccc2ccccc12 | inactive: -19.2% | 
43 | C=CCc1cccc(/C=N/NC(=O)CCC(=O)Nc2ccc(C)cc2)c1O | inactive: -1.11% | 
44 | Cc1ccc(NC(=O)COc2ccc(/C=C3/SC(=Nc4ccccc4)N(Cc4cccnc4)C3=O)cc2)cc1 | inactive: 2.57% | 
45 | Cc1ccc(N2CC(C(=O)Nc3nccs3)CC2=O)cc1Cl (stereo not given) | inactive: -2.52% | 
46 | CC(C)(C)c1cc(C(=O)N/N=C/c2ccc([N+](=O)[O-])s2)n[nH]1 | inactive: 2% | 
47 | CCCCCCn1c2c(c(=N)c3c1CCC3)CCC2 | inactive: 3.98% | 
48 | COc1ccc(OC)c(/C=C/C(=O)N2C(=O)c3cccc(N)c3C2=O)c1 | inactive: -5.92% | 
49 | CC1(C(=O)NCc2cccc(C(F)(F)F)c2)CCN1Cc1ccc(-c2ccccc2)o1 (stereo not given) | inactive: -4.91% | 
50 | COc1cc(/C=C/C(=O)c2ccc(C)c([N+](=O)[O-])c2)cc(OC)c1O | inactive: -5.57% | 

4 neighbouring entries already listed, quoted:
Row | Compound | activity change, negative = inhibition | Potency
24 | CCCc1cc(=O)[nH]c(-n2[nH]c3c(c2=O)CCCC3)n1 | inactive: -3.31% | 
25 | COc1ccnc(Oc2ccc(F)cc2)c1C(=O)N/C=N/OCc1ccc(Cl)cc1Cl | inactive: -3.68% | 
26 | Oc1c(C(Nc2ccccn2)c2cccnc2)cc(Cl)c2cccnc12 (stereo not given) | inactive: -17.9% | 
27 | O=C(N/N=C/c1ccc(O)cc1O)c1ccc(CN2C(=O)c3cccc4cccc2c34)cc1 | inactive: -3.52% | 

Later entries

Row | Compound | activity change, negative = inhibition | Potency
51 | O=C(c1ccc(F)cc1F)C1CCN(c2ccc([N+](=O)[O-])cn2)CC1 | inactive: 1.01% | 
52 | CN1CCC2(CC1)N=C(c1ccc(F)cc1)C(=S)N2C(=O)c1ccc(C(C)(C)C)cc1 | inactive: -16.8% | 
53 | O=C(c1ccco1)N1CCN(c2ccnc3cc(Cl)ccc23)CC1 | inactive: -13.2% | 
54 | CCCCOc1ccccc1NC(=O)Cn1c(-c2nonc2N)nc2ccccc21 | inactive: 22.6% | 
55 | [O-][n+]1c2ccccc2cc2ccccc21 | inactive: -10.2% | 
56 | Cc1cccc(CN2C(=O)/C(=C\c3ccc(C(=O)NCCN4CCOCC4)cc3)Sc3ccccc32)c1 | inactive: -8.78% | 
57 | Cc1ccc2cc(C#N)c(N3CCN(C(=O)c4ccccc4)CC3)nc2c1 | inactive: -2.49% | 
58 | CC1(C)Cc2c(sc(NC(=O)c3ccc(C(=O)c4ccccc4)cc3)c2C(N)=O)C(C)(C)N1 | inactive: -0.284% | 
59 | CC(=O)c1c(C)oc2ccc(N(C(C)=O)S(=O)(=O)c3cccc4cccnc34)cc12 | inactive: -2.27% | 
60 | S=C(NCc1cccnc1)Nc1ccc(Oc2ccc(Cl)cc2)cc1 | inactive: -0.796% | 
61 | Cc1ccc(C)c(OCCCC(=O)Nc2nccs2)c1 | inactive: -2.91% | 
62 | O=[N+]([O-])c1cc(CN2CCN(c3ccccc3)CC2)c(O)c2ncccc12 | inactive: -6.1% | 
63 | COc1cccc(/C=N/Nc2ncc(C(F)(F)F)cc2Cl)c1O | inactive: -7.18% | 
64 | Cc1noc2ncnc(N3CCN(c4cccc(Cl)c4)CC3)c12 | inactive: 2.97% | 
65 | Cn1cc(C(=O)c2ccc(Cl)cc2Cl)cc1C(=O)N/N=C(\N)COc1ccc(Cl)cc1 | inactive: -0.139% | 
66 | Cc1sc2nc(CN3CCCC3)nc(N3CCC(C(N)=O)CC3)c2c1C | inactive: -0.83% | 
67 | O=C(c1cccc(Cl)c1)c1nn(-c2ccccc2)c(=O)cc1C(F)(F)F | inactive: -3.02% | 
68 | CC(C)C1Cc2c(sc3[nH]c(=S)n(Cc4ccccc4)c(=O)c23)CO1 (stereo not given) | inactive: -14.2% | 
69 | NS(=O)(=O)c1ccc(CCNC(=O)c2cc(-c3ccccn3)nc3ccc(Br)cc23)cc1 | inactive: 1.91% | 
70 | CCOC(=O)c1ccc(NC(=O)C2CCCN(S(=O)(=O)c3ccc(F)cc3)C2)cc1 (stereo not given) | inactive: -0.445% | 
71 | CCN(CC)S(=O)(=O)c1ccc(N/N=C/c2ccc(O)cc2O)nc1 | inactive: 3.3% | 
72 | Cc1ccc(OCCCC(=O)NNC(=O)c2ccccn2)cc1 | inactive: -1.95% | 
73 | Cc1csc2ncnc(NC3CCN(Cc4ccccc4)CC3)c12 | inactive: 1.59% | 
74 | Cc1c([N+](=O)[O-])cc(C(=O)Nc2ccc(Cc3ccncc3)cc2)cc1[N+](=O)[O-] | inactive: -9.2% | 
75 | CN(C)CCCNC(=O)/C=C/c1ccc(OCc2c(F)cccc2Cl)cc1 | inactive: -5.2% | 

Row | Compound | activity change, negative = inhibition | Potency
76 | Cc1cnc(NC(=O)CCCc2nc3ccccc3s2)s1 | inactive: -11.5% | 
77 | Cc1nc2cc(NC(=O)CSc3nc4c(C)cccc4cc3C#N)ccc2s1 | inactive: 1.43% | 
78 | CSCC[C@H](NC(=O)OC(C)(C)C)C(=O)N/N=C/c1cccc2cccnc12 | inactive: -2.18% | 
79 | COc1ccc(N2CCN(C(=O)c3cc4c(C)nc5ccccc5c4o3)CC2)cc1 | inactive: -3.21% | 
80 | COc1ccc(-c2cc(C3CCN(c4ccc(C(C)=O)cc4[N+](=O)[O-])CC3)[nH]n2)cc1 | inactive: -6.65% | 
81 | CN(C)C(=O)CSc1nc(-c2ccccc2)nc2c1CCCC2 | inactive: 0.0311% | 
82 | Cc1cccc2c1-c1sc(C(=O)Nc3ccccc3N3CCN(C)CC3)cc1CO2 | inactive: 0.0801% | 
83 | CCOc1ccc(-n2c(-c3ccccc3)c[n+]3c2CCCCC3)cc1 | inactive: -2.5% | 
84 | O=C(c1ccoc1)N1CCN(c2cc(-c3cccnc3)nc3cc(-c4cccc(Cl)c4)nn23)CC1 | inactive: -16.4% | 
85 | C=CCn1c(COc2ccccc2)nnc1SCC(=O)N/N=C/c1cc(Cl)ccc1O | inactive: -4.62% | 
86 | CC[n+]1c(C=C2C=C(C)OC(C)=C2)sc2ccccc21 | inactive: -1.99% | 
87 | NNc1ccc(Cc2ccc(Cl)cc2Cl)nn1 | inactive: -4.55% | 
88 | CC1(C)Cc2c(c(-c3ccco3)nc3sc4c(NCCN5CCOCC5)ncnc4c23)CO1 | inactive: -2.09% | 
89 | CCOc1ccc(CN(C)c2nc(-c3cccnc3)nc3ccccc23)cc1OC | inactive: -9.84% | 
90 | O=[N+]([O-])c1ccc(NC(c2ccccc2)c2ccc3cccnc3c2O)cc1 (stereo not given) | inactive: 0.892% | 
91 | O=C1c2cccc3c([N+](=O)[O-])ccc(c23)C(=O)N1c1ccc(Cl)cn1 | inactive: -1.44% | 
92 | Clc1cccc(-c2nc(NCc3cccnc3)c3ccccc3n2)c1 | inactive: -7.42% | 
93 | O=C(NCc1ccccc1)C1=C[C@@H](c2csc3ccccc23)C[C@@H](OCCCCO)O1 | inactive: -2.89% | 
94 | COc1ccc(O)c(/C=N/NC(=O)c2ccc(N3CCCC3=O)cc2)c1 | inactive: -5.46% | 
95 | C(=N\Nc1ccc2nncn2n1)/c1ccccn1 | inactive: -5.45% | 
96 | OC[C@@H]1CN(Cc2ccc(-c3ccccc3)cc2)C[C@H](n2cnc3c(NC4CCC4)ncnc32)O1 | inactive: -0.859% | 
97 | O=C1c2ccccc2NC(c2ccc(-c3cccc([N+](=O)[O-])c3)o2)N1O (stereo not given) | inactive: -18.4% | 
98 | NC(Cc1ccc(Cl)cc1)c1csc(Nc2nccc(C(F)(F)F)n2)n1 (stereo not given) | inactive: 0.694% | 
99 | CC(=O)N1CCN(c2ccc(Oc3ccc([N+](=O)[O-])c(C(F)(F)F)c3)cc2)CC1 | inactive: 0.994% | 
100 | O=C1C=CCC(/C=C/c2ccccc2)O1 (stereo not given) | inactive: 0.0453% | 
